According to paper PMC12038257:

Target: MdWRKY9 (UniProt D9ZJG3)
Experiment: EMSA
Settings: EMSA buffer, pH and temperature not given (refers to earlier method, ref. 35), GST added to equalize protein in JAZ assays, recombinant protein, protein details: His (pET32a(+)), label: 3' biotin

| Sequence | binding result (increasing MdJAZ5-GST) | binding result (increasing MdJAZ10-GST) | binding result |
| --- | --- | --- | --- |
| ATCATATTTTTACACTAAAAAGTCAATCTTGGTACTATTTATCTTA (double strand) [MdNHX1 W-box W1 (-1255)] | binds more weakly | binds more weakly |  |
| GCCAATCACCTTTTTATGTTGGTCAATGAATGGTTTAAGTTTCTGG (double strand) [MdSOS3 W-box probe 2 (-820)] |  |  | no binding |
| TATGAAAACTGGAACTTGGGTTGACTGAATTTACTTCTAATTTCAT (double strand) [MdSOS2 W-box W3 (-303), probe 2] | binds more weakly | binds more weakly |  |
| TCACAGCCACGTGAATTGAATTGACCAATTTTCCAATTCTGTTTAT (double strand) [MdSOS2 W-box W2 (-149), probe 1] | binds more weakly | binds more weakly |  |
| TCGAGTCTGATAAAATATTATTGACCGAGTGCCATTCTATTGCGAT (double strand) [MdSOS3 W-box probe 3 (-865)] |  |  | no binding |

For at least one entry, the source does not settle the construct or the ends of the probe. No signal at the amounts used counts as a negative. The comparison behind a weaker result is the experiment's own reference, which may not be listed here. At least one verdict rests on a figure or table, not on a statement of the authors.
